Here are results for two molecules from US20210162000A1 (INSTITUT DE CARDIOLOGIE DE MONTREAL, published 2021).

By UniProt entry, the sequences of proteins in these tests, tags left out. Where a name states a change or a piece, a line headed by the entry shows the natural chain unless it says otherwise.
UniProt Q8NBP7: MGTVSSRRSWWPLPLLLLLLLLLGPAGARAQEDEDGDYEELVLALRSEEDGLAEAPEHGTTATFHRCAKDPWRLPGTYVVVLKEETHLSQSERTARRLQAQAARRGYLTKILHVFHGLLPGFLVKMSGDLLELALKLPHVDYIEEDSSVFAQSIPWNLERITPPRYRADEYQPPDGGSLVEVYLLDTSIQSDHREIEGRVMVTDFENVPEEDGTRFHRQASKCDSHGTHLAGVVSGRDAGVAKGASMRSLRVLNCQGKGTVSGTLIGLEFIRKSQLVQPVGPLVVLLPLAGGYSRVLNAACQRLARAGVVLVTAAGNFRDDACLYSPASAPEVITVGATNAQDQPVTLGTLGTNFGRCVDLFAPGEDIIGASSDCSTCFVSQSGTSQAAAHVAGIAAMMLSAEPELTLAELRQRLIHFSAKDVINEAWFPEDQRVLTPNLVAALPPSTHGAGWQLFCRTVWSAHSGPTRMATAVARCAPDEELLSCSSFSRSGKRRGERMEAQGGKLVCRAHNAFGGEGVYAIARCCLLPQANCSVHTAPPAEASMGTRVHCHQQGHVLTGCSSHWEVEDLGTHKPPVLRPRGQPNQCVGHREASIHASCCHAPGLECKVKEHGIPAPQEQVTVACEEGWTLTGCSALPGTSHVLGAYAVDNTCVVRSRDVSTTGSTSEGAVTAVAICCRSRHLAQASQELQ

Assay [1] addresses Proprotein convertase subtilisin/kexin type 9 (PCSK9), endogenous in HepG2 and Huh-7 cells (human) (UniProt Q8NBP7). As to the kind of experiment: DSP cross-linking, IP with anti-PCSK9 polyclonal antibody from HepG2 cells, silver staining, LC-MS/MS.
Assay [2] deals with Recombinant human PCSK9-V5-His6 (human) (UniProt Q8NBP7). As to the kind of experiment: in vitro competitive pull-down with PCSK9-V5-His6 and recombinant human LDLR ectodomain, immunoblot.
Assay [3] has the same target. The assay can be described thus: in vitro competitive pull-down: PCSK9-V5-His6 pre-incubated with SEQ ID NO 6, then LDLR ectodomain, mAb-V5 and A/G-agarose; immunoblot.

Results are given in words; binding and its absence hold for the method and conditions named. Binding seen in cells or lysates may run through a third protein. Some entries that bind do so weakly or less than the wild type.

As for “Glucose-regulated protein 94 (GRP94), endogenous (from UniProt P14625 22-803)”, the binding result in assay [1] is given as “binds”.

B1: Recombinant SEQ ID NO 6, GRP94 CBD-CT (aa 652-799), His6 tag purified from E. coli (other)
chain: YGWSGNMERIMKAQAYQTGKDISTNYYASQKKTFEINPRHPLIRDMLRRIKEDEDDKTVLDLAVVLFETATLRSGYLLPDTKAYGDRIERMLRLSLNIDPDAKVEEEPEEEPEETAEDTTEDTEQDEDEEMDVGTDEEEETAKESTAE
notes: also called NO; 43; GRP94 CDB-CT domain; not shown: His6 tag from pET24b(+)
With B1, the binding result in assay [2] and in assay [3] was “binds” throughout.
